According to publication PMC3635866:
Results are given in words; binding and its absence hold for the method and conditions named. In cells and extracts the contact can be indirect. Some entries that bind do so weakly or less than the wild type.

Protein sequences, listed by entry. Tags and fused reporters are not part of them.
UniProt Q9EP80: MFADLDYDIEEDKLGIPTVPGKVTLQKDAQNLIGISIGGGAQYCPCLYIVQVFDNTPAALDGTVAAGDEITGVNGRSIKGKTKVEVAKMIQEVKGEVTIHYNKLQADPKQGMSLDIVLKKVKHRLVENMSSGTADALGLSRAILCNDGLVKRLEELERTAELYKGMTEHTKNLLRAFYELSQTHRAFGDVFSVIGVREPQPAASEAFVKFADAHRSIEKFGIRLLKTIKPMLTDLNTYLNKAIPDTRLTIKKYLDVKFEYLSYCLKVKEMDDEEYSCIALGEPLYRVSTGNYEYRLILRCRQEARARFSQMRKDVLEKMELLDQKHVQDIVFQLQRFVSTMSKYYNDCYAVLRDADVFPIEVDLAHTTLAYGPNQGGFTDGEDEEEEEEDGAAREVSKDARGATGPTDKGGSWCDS

Target: Protein interacting with C kinase 1 (PICK1), endogenous in GH1 cells (rat (endogenous in GH1)) (UniProt Q9EP80)
Assay: co-IP; GH1 cell lysate (PBS + 1% Triton X-100); mouse anti-PICK1 2G10 on protein G agarose, 1 h at 4°C; washes include PBS with 1% Triton X-100 and 500 mM NaCl; blot with rabbit anti-ICA69; control: beads without antibody

binding: binds
B1: Islet cell autoantigen 69 (ICA69), endogenous in GH1 cells (protein, UniProt Q63054 1-480)
chain: MSGHKCYSWELQDRFAQDKSVVNKMQQKYWETKQAFIKATGKKEDEHVVASDADLDAKLELFHSIQRTCLDLSKAIVLYQKRICFLSQEENELGKFLRSQGFQDKTRAGKMMQATGKALCFSSQQRLALRNPLCRFHQEVETFRHRAISDTWLTVNRMEQCRTEYRGALLWMKDVSQELDPDLYKQMEKFRKVQTQVRLAKKNFDKLKMDVCQKVDLLGASRCNLLSHMLATYQTTLLHFWEKTSHTMAAIHESFKGYQPYEFTTLKSLQDPMKKLVEKEKKKSSRRENREAVAQEPRQLISLEEENQHKESSTCQKEEGKSVPSSVDKSSADDACSGPIDELLDVKPEEACLGPMAGTPEPESGDKDDLLLLNEIFSTSSLDEGEFSREWAAVFGDDRLKEPAPMGAQGEPDPKPQIGSAFLPSQLLDQNMKDLQASLQEPAKAASDLTAWFSLFADLDPLSNPDAIGKTDKEHELLNA
